Assay results from patent US8937154B2, “Stabilized therapeutic small helical antiviral peptides” (priority 2006, dated 2015).
For at least one compound, name, drawing or mass did not settle the structure. Where a SMILES comes first, the peptide text is derived from it. Bridges are numbered along the chain shown (N, C = ends). [ ]: non-standard residue; d: D form. R8 = C=CCCCCCC[C@@](C)(N)C(=O)O; S5 = C=CCCC[C@](C)(N)C(=O)O

Target: CTDM184A/W185A (Human immunodeficiency virus type 1 group M subtype B, UniProt P04591, M317A/W316A)
Test: Isothermal titration calorimetry
Design: species or system HIV-1
Conditions: ITC, 25 mM sodium phosphate buffer (pH 7.3), single-binding model
Protocol: In a typical experiment, the ITC injection syringe was loaded with 625 μM CTDM184A/W185A protein dissolved in the dialysis buffer. […] Typically titrations consisted of 27 injections of 10 μl into the calorimetric cell, with 240-s equilibration between injections. The thermodynamic parameters were obtained and data were analysed using MicroCal Origin 7.0 software.

With CC[C@H](C)[C@H](N)C(=O)N[C@@H](CO)C(=O)N[C@@H](Cc1ccccc1)C(=O)N[C@]1(C)CCCCCC/C=C\CCC[C@@](C)(C(=O)N[C@@H](CCC(=O)O)C(=O)N[C@@H](CO)C(=O)NCC(=O)N[C@@H](CO)C(N)=O)NC(=O)[C@H](Cc2ccc(O)cc2)NC(=O)[C@H](Cc2ccc(O)cc2)NC(=O)[C@H](CC(=O)O)NC(=O)[C@H](CC(C)C)NC(=O)[C@H](CC(C)C)NC(=O)[C@H](CCC(=O)O)NC1=O [NYAD-36] (H-ISF[R8]ELLDYY[S5]ESGS-NH2; staple (Z) 4-11) as the compound, how does the Kd read?
The Kd was 11 µM.
